Laboratory results from paper PMC11770632 (Journal of Medicinal Chemistry, 2024).

Legend:
physchem = conditions: pH 7.4, aqueous buffer, kinetic from dmso stock
[1] = pH 7.4
DCAF1-WD40 domain = conditions: cited from earlier work

O=C(Nc1nnc(C(F)(F)F)s1)c1cc(-c2ccccc2)nn1-c1ccccc1 [DR02380]
solubility (physchem): ≥ 200 µM

Cc1cc(=O)c(C(=O)OC(C)C(=O)Nc2nc(-c3ccccc3)cs2)nn1-c1ccccc1 (stereo not drawn) [DR02034]
Solubility and aggregation (DLS) at 200 μM [1]: compromised

NC(=O)C[C@H](NC(=O)c1c[nH]nc1-c1ccc(Cl)cc1F)c1ccc(F)c(Cl)c1 [OICR-8268]
Stabilization of DCAF1-WD40 domain in DSF (DCAF1-WD40 domain): potently stabilized
